The source of these data is paper PMC4579843.

Protein sequences, listed by entry. Tags and fused reporters are not part of them.
UniProt P25694: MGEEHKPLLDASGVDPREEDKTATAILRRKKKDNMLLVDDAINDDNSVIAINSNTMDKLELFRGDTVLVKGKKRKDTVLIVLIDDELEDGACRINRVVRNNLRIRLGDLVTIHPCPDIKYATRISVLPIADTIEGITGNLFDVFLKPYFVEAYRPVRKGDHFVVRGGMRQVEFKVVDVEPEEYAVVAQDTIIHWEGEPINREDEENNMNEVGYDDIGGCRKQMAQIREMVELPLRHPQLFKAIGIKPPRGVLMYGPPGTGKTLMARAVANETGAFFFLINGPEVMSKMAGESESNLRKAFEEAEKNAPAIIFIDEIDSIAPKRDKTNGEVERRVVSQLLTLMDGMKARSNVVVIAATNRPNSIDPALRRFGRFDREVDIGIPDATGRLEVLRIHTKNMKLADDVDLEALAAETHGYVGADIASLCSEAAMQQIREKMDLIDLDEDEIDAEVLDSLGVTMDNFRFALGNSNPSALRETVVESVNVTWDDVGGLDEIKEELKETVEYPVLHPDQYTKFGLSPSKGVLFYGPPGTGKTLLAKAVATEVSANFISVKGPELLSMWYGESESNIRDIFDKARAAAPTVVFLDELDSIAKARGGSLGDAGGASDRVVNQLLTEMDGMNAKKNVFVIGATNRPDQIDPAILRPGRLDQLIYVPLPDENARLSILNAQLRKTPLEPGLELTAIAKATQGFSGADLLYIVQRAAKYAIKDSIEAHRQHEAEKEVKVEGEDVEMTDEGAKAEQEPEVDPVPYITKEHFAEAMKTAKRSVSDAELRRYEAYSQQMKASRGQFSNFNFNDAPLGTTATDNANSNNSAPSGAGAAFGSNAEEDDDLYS

This experiment has as its target Cdc48 (S. cerevisiae (endogenous in W303)) (UniProt P25694). Briefly: co-IP; endogenous Cdc48 immunoprecipitated with goat polyclonal anti-Cdc48 antibodies (Abgent) and Dynabeads Protein G from extract of asynchronous WT cells expressing Est1-Myc9; TMG-50 (10 mM Tris-HCl pH 8.0, 50 mM NaCl) with 0.5% Tween-20, 4 °C; anti-Myc western blot; untagged cells as control.

These are yes or no findings as the source states them, for the method shown. In cells and extracts the contact can be indirect. Some results given as binding are weak or reduced against the parent protein; the word gives no strength. Tags and fused reporters may be left off the sequences shown.

B1: Est1-Myc9 (protein, UniProt P17214 1-699)
chain: MDNEEVNEECMRLFFKNARAHLDKHLTSRLTCDENAYITFRCFLDGIHRKSTRFLEELLLKQENMYHNNNYERINDSVIPLVLKLLWLQIHEPTLQWFEHWFHDIMRLSNRRKFRVFRIFQKKMIQFFKITHRYYYDIIEHLCAKYDMNSVISNALFAKLNLMQYTDGLSTHEKIILNTSNPLTFSIVISLQRCVINLGSTHFYKTLLNKPSNKPKSVEGFEKSIRYLNIASLYLPAVGDTYFQRAKIYLITGKFSLYFFELVRGALVRIPSKCALNNLKDFILTPDFPERRRLMKKLAILVSKDLKGEKSFFEGQIVLQFLSIVEHTLVPQSWNASRASNCWLLKEHLQMAALKYHSGNINVILENLAATMGSFDLMFTTRKSKEQKNKLKYADLSERQVFFLDLSFDFIANIIDVVIKPSWQKNMEDFRYLAIIRLLMCWIKSYRSILQYTHRHRKFCTSFALLLNDLINSPLNCSGNIYSHRPKRSYLFREDIIFREFSCINFALTDFNDDYVYDSPDMINNIIGCPTLTKVLSPKEECVLRIRSIIFSGMKFLEKNDTGVIWNASKYKFDLISPNIKIKRQIALSEISSKINVKTQQERVVSSRKVEAKRDEQQRKRAGKIAVTELEKQFANVRRTKKLSPLPEKDGVSSELVKHAASRGRKTITGPLSSDFLSYPDEAIDADEDITVQVPDTPT
For the molecule B1, the binding result is “binds”.
